Measured values reported in article PMC9974436.
No constants are given. Whether binding was seen depends on the method and setting. In cells and extracts the contact can be indirect. Where a sequence is shown, tags or fusion partners need not be part of it.

Amino acid sequences for entries named in this document (tags omitted). Residues count along the entry.
UniProt P30101, residues 25-505: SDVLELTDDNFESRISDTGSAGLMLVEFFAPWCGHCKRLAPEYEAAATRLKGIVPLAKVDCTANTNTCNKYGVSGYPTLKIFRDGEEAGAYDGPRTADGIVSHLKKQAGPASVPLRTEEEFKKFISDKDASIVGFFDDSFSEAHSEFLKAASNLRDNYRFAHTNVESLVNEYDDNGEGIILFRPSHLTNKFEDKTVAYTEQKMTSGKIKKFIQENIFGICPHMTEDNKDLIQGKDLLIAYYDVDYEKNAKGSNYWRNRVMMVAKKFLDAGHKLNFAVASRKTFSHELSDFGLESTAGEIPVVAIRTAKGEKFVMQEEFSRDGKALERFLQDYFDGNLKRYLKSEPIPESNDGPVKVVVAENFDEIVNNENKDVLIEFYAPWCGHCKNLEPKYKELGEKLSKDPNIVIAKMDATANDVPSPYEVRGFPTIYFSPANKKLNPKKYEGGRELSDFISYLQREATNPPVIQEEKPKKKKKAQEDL

Target: T1, 1700029I15Rik-3 × FLAG (mouse) (UniProt Q8CF31)
T1 sequence: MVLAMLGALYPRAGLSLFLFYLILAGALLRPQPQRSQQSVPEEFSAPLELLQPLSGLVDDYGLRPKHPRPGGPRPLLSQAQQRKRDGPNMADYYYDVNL
Assay: co-IP; lysates of HEK293T cells transiently expressing 1700029I15Rik-3 × FLAG; antibody-conjugated magnetic beads; SDS-PAGE and Western blot of endogenous partners

binding: no binding
Substance: endogenous PDIA3 of HEK293T cells (from UniProt P30101 25-505)
